Results reported in the supplement of paper PMC11732987, “Enantioselective OTUD7B fragment discovery through chemoproteomics screening and high-throughput optimisation” (Communications Chemistry, 2025).
The list shows a part of the results. The data scatter; read single values as rough.

Protein sequences, listed by entry. Tags and fused reporters are not part of them. Lines headed by an entry give the natural chain unless they say otherwise; changes in a name come on top. Residues count along the entry.
UniProt Q9UPU5: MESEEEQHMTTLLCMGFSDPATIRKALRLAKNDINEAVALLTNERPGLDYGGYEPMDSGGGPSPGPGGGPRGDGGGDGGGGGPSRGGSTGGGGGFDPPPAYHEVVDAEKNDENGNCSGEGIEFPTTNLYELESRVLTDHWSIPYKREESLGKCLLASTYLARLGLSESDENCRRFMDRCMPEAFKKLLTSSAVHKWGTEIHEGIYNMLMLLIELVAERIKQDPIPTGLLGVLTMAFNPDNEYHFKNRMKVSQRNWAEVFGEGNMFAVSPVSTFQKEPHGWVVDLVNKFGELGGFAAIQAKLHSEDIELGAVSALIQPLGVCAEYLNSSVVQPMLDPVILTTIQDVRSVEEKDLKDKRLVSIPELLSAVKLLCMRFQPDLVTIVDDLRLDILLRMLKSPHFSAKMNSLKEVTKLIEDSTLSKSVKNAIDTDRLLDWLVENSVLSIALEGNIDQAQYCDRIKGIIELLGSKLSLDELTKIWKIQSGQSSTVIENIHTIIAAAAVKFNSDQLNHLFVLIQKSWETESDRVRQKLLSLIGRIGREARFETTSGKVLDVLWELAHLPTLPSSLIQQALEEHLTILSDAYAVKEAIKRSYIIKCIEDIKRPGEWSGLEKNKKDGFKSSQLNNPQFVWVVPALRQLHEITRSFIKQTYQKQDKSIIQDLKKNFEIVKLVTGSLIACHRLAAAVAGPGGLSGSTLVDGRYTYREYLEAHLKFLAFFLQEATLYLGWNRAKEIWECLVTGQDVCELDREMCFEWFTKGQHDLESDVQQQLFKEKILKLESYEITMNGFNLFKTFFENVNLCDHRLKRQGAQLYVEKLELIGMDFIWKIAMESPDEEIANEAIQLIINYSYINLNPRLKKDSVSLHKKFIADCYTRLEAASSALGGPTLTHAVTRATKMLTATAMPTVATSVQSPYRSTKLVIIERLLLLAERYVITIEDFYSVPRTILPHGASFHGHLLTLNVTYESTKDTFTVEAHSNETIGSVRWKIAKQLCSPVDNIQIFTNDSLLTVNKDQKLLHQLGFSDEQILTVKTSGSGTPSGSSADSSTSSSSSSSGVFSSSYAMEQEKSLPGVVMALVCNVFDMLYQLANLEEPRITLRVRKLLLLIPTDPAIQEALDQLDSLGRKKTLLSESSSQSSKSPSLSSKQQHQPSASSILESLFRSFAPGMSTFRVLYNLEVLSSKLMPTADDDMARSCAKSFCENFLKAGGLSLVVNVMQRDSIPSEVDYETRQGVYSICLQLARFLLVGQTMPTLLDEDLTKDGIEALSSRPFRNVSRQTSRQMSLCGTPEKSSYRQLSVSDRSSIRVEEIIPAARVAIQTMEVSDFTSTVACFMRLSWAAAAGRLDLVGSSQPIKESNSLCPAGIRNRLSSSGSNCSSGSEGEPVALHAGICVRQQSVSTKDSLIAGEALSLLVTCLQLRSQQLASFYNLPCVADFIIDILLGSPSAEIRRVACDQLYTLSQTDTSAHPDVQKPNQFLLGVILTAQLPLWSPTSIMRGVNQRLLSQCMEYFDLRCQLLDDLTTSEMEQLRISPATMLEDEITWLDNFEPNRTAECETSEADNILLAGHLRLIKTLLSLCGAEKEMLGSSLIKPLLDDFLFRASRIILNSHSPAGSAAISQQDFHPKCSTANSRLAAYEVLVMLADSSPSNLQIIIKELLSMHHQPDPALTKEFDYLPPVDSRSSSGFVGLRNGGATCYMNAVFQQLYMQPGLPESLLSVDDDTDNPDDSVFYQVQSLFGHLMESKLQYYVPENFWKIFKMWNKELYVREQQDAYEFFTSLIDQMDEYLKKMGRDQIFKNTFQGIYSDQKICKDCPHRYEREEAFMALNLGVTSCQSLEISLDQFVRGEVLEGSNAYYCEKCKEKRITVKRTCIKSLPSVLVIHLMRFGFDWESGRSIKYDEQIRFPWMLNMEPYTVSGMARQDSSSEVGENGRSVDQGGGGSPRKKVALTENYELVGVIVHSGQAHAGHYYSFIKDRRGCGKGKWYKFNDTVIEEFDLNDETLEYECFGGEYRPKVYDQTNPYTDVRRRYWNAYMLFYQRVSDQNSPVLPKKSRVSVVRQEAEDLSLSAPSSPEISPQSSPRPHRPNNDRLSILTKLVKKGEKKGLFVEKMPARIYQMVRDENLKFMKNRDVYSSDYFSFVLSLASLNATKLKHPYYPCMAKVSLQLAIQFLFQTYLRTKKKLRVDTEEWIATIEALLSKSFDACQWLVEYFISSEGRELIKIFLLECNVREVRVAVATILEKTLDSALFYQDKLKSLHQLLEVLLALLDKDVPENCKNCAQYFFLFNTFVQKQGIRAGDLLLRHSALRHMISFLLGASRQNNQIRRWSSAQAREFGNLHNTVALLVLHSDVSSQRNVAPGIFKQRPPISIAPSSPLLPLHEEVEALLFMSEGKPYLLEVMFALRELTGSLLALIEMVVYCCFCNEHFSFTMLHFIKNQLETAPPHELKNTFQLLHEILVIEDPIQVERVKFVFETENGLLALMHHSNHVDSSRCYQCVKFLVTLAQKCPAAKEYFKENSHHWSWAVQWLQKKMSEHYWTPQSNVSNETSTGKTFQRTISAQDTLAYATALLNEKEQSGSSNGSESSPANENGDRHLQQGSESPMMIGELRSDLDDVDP
UniProt Q96RL1: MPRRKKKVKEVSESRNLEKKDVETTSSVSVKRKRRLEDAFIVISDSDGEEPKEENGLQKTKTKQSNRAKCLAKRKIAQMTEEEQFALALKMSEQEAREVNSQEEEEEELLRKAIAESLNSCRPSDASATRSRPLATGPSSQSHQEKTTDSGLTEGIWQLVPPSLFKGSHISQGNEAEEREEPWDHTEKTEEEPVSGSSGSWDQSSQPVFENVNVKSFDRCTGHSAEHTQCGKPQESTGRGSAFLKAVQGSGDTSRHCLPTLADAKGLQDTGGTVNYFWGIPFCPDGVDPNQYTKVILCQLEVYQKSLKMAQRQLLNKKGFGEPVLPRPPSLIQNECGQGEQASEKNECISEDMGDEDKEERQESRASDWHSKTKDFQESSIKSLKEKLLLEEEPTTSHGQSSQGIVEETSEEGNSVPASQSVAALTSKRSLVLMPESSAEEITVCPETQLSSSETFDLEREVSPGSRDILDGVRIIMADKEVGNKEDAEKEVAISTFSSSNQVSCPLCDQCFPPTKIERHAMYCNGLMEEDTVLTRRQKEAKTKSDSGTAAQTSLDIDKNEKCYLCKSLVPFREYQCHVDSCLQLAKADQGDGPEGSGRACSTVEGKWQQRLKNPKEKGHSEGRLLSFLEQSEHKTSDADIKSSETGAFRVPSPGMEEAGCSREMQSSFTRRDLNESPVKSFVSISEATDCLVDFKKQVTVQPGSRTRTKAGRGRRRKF
UniProt Q9C0B0: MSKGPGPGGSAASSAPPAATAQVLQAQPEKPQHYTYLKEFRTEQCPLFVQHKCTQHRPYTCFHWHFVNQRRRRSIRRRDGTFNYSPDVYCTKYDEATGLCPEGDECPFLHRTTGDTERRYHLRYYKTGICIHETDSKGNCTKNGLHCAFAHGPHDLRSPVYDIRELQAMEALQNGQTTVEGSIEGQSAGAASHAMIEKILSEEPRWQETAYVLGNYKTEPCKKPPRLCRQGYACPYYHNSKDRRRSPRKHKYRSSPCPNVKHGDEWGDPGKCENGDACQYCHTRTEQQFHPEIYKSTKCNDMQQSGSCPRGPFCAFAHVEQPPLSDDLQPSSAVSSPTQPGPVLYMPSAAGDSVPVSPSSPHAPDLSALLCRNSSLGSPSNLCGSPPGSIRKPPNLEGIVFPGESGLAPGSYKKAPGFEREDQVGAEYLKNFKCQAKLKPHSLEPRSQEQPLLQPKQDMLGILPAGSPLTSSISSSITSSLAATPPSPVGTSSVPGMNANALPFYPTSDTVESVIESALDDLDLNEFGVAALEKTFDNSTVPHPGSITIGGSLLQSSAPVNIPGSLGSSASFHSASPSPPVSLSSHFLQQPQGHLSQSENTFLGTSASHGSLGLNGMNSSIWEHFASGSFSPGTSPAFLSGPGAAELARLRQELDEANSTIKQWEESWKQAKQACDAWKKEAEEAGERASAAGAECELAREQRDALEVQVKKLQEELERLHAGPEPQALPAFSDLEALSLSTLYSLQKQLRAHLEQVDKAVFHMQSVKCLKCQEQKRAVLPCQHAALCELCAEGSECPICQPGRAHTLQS
UniProt Q9BRU9: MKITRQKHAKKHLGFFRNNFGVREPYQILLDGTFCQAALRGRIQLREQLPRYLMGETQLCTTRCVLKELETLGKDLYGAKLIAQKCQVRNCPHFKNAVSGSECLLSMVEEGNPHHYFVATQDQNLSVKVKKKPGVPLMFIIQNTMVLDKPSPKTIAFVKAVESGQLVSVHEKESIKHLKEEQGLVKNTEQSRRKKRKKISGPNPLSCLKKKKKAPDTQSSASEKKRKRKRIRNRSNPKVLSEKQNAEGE
UniProt Q08AM6, 360-390: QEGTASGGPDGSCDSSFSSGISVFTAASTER
UniProt Q96AX1: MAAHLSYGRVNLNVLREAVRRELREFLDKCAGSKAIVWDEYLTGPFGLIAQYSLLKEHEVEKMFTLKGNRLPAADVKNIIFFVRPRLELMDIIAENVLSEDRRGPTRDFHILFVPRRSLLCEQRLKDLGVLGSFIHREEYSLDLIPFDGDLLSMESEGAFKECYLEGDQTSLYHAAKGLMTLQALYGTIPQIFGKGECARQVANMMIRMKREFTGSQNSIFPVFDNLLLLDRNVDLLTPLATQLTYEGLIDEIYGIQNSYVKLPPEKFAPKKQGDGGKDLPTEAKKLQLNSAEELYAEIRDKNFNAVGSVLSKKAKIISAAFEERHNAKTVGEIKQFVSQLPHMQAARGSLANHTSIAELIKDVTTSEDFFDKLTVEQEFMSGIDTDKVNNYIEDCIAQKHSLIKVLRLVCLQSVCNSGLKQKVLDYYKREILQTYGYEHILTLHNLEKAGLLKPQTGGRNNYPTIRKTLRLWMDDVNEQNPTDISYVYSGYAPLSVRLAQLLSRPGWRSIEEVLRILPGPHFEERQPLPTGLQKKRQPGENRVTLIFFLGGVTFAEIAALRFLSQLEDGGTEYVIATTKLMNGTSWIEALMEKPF
UniProt Q92900: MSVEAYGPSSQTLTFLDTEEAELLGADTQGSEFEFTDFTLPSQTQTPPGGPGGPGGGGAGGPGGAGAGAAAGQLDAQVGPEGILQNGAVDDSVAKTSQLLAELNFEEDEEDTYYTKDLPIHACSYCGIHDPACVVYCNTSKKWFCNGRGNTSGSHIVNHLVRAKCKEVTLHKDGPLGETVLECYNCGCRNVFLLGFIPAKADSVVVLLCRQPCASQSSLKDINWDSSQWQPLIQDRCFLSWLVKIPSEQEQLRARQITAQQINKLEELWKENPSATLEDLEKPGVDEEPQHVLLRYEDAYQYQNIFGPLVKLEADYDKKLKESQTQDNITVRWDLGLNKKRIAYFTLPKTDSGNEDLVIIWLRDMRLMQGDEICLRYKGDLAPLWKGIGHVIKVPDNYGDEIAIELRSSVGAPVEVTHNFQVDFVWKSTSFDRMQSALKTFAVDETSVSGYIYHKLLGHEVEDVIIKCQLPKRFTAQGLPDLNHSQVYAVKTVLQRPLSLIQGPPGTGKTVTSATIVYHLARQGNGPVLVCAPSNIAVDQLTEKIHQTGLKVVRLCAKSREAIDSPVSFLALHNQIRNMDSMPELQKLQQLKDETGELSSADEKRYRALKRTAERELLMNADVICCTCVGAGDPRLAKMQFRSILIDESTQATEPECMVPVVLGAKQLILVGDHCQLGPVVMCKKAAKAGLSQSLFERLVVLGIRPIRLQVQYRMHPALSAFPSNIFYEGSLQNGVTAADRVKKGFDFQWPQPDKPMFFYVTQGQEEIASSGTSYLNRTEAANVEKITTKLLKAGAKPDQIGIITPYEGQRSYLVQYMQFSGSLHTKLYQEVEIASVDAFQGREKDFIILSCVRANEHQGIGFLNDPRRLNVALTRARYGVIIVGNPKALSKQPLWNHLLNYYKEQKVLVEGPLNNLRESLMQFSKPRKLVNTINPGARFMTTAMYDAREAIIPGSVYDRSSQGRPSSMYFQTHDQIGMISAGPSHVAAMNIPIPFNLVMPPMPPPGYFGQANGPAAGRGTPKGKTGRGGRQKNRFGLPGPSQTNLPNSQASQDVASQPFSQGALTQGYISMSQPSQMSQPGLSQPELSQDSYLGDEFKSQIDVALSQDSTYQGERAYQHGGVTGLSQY
UniProt Q9BRT2: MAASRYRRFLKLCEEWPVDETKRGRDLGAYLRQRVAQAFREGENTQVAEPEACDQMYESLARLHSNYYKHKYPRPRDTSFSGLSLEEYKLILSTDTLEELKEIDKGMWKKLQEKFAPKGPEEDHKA
UniProt Q7Z7G8, 1999-2021: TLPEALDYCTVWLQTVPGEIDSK

Tests used:
[1] = compound: ClCC(=O)N[C@@H]1CCCc2ccccc12; test: log2 mean competition ratio of IA-DTB cysteine labelling (DMSO/compound) (log2 ratio); higher = stronger cysteine engagement by compound; conditions: treatment time: 4 h, cell line lysate: HEK293T
Experimental: (§1)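 IA-DTB competitive cysteine chemoproteomics in HEK293T RIPA lysate. Lysates were treated with compound 29 or 30 at 50 or 200 µM for 4 h, then IA-DTB (500 µM, 1 h), trypsin-digested, NeutrAvidin-enriched and analysed by diaPASEF. Competition ratio = intensity DMSO / intensity compound (n=4 treated, n=64 DMSO); binding: mean log2 CR ≥ 1 and p ≤ 0.05 plus QC filters. Target is the cysteine site.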

[2] = compound: ClCC(=O)N[C@H]1CCCc2ccccc12; test: as above; conditions: treatment time: 4 h, cell line lysate: HEK293T
Experimental: as §1

Target | log2 mean competition ratio ([1]; 50 µM) | log2 mean competition ratio ([1]; 200 µM) | log2 mean competition ratio ([2]; 50 µM) | log2 mean competition ratio ([2]; 200 µM)
USP24 C802 (UniProt Q9UPU5) | 0.169 | 0.213 | -0.205 | -0.0155
VPS13D C374 (UniProt Q5THJ4) |  |  | -0.0554 | 0.336
UIMC1 C601 (UniProt Q96RL1) |  |  | 0.322 | 0.144
UNK C45 (UniProt Q9C0B0) |  |  | -0.00536 | -0.000886
UTP23 C60 (UniProt Q9BRU9) |  | 0.0534 | -0.201 | 0.183
VPS13C C2159 (UniProt Q709C8) | 0.562 |  | 0.377 | 0.751
VLDLR C318 (UniProt P98155) | -0.155 | 0.378 | 0.2 | 0.547
USP24 C1628 (UniProt Q9UPU5) |  |  | 0.0302 | -0.0417
VPS11 C660 (UniProt Q9H270) | 0.114 | 0.204 | -0.116 | 0.211
UTP20 C242 (UniProt O75691) |  |  | 0.137 | -0.292
VAC14 C372 (UniProt Q08AM6) | -0.519 | 0.047 | -0.278 | -0.146
VPS33A C163 (UniProt Q96AX1) | -0.289 | 0.0231 | -0.339 | -0.0332
UPF1 C165 (UniProt Q92900) |  |  |  | -0.188
UQCC2 C13 (UniProt Q9BRT2) |  |  | 0.0308 | 0.0635
VAC14 C101 (UniProt Q08AM6) |  |  | -0.341 | -0.214
VKORC1L1 C50 | 0.0731 | 6.33e-05 | -0.107 | 0.0973
VPS13B C2007 (UniProt Q7Z7G8) |  |  | -0.275 | 0.25
USP9X C673 (UniProt Q93008) | 0.0871 | -0.251 | 0.0666 | -0.15
UTRN C2602 (UniProt P46939) |  |  | 0.293 | 0.329

A run of entries taken from the entries so far:
Target | log2 mean competition ratio ([1]; 50 µM) | log2 mean competition ratio ([1]; 200 µM) | log2 mean competition ratio ([2]; 50 µM) | log2 mean competition ratio ([2]; 200 µM)
VPS13C C2159 (UniProt Q709C8) | 0.562 |  | 0.377 | 0.751
VLDLR C318 (UniProt P98155) | -0.155 | 0.378 | 0.2 | 0.547
